According to publication doi:10.1101/2023.01.15.524091:
Results are given in words; binding and its absence hold for the method and conditions named. Binding seen in cells or lysates may run through a third protein. Here binding means that the protein was enriched with, or labelled near, the bait; the list need not be complete.

The chains behind the UniProt entries cited, without tags or fusion partners. Where a name states a change or a piece, a line headed by the entry shows the natural chain unless it says otherwise.
UniProt Q01105: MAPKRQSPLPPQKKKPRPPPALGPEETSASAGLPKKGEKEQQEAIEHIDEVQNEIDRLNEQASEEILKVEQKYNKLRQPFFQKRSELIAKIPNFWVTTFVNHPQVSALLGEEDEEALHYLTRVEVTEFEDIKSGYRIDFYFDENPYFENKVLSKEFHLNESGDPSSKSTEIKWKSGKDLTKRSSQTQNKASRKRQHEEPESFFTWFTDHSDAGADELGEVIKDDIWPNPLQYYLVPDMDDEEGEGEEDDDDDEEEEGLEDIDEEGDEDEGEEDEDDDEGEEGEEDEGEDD
UniProt P39687: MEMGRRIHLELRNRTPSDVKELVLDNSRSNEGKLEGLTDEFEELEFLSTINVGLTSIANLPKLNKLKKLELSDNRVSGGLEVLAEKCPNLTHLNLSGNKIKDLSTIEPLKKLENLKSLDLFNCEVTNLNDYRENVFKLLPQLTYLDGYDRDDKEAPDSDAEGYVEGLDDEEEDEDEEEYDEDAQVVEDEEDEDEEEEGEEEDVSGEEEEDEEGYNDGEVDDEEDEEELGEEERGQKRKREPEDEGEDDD
UniProt P63330: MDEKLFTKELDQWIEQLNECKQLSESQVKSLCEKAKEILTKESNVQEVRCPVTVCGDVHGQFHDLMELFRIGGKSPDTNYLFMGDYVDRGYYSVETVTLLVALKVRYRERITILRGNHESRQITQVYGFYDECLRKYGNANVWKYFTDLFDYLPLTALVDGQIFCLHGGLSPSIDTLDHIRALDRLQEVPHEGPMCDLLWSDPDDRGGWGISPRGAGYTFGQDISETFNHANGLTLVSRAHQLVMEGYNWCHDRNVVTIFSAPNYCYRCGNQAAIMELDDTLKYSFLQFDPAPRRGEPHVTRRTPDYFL

Tests used:
[1] = target: Myc-SET (human full-length SET, stably over-expressed in HEK293T; SET-OE) (human) (UniProt Q01105); assay: affinity purification with mass spectrometry
[2] = target: Myc-SET (human full-length SET, stably over-expressed in Panc02) (human) (UniProt Q01105); assay: affinity purification with mass spectrometry

## ANP32A (PP32), endogenous in HEK293T (from UniProt P39687 1-249)
[1]
  binding: binds

## PP2A-C, endogenous in Panc02 (from UniProt P63330) (enzyme)
[2]
  binding: binds
